One data set has as its system all proteins (SLCs and non-SLCs). Briefly: Selectivity entropy score against all proteins (S_other). Particulars: selectivity entropy score against all proteins, from database activities. Also on record: species or system human.
Regarding `Cc1c(NC(=O)c2cc(C(N)=O)nc3cc(F)ccc23)c(C(F)(F)F)nn1Cc1ccc(C#N)cc1` [BAY-876], the S_other is 0.17.
On the same count and under the same terms, next, `CCOC(=O)N1CCC(=C2c3ccc(Cl)cc3CCc3cccnc32)CC1` [Loratadine]: 1.57; `Cc1ccsc1C(=CCCN1CCC[C@@H](C(=O)O)C1)c1sccc1C` [Tiagabine]: 0; `CC1C(C#N)=C(N)OC2=C1C(=O)CC(c1cccc3ccccc13)C2` (stereo not drawn) [UCPH-102]: 0.
`N[C@H](C(=O)O)[C@H](OCc1cccc(NC(=O)c2ccc(C(F)(F)F)cc2)c1)C(=O)O` [TFB-TBOA] registered a S_other of 0.82.
The molecule `CNCCCN1c2ccccc2CCc2ccccc21` [Desipramine] yielded a S_other of 0.2.
`N#Cc1ccc(Nc2cnccc2SCc2ccccc2C(=O)O)c2ccccc12` [KPH2f] gave a S_other of 0.21.
For `COCCOc1cc(CC2CCN(CCc3ccc4c(c3)C(=O)CCO4)CC2)ccc1Br` [DSP-1053], the S_other came to 0.56.
Still for that read-out and setting: the result for `CN1C2CCC1CC(OC(c1ccccc1)c1ccccc1)C2` (stereo not drawn) [Benzotropine] reads 0; that for `Nc1nc2ccc(OC(F)(F)F)cc2s1` [Riluzole], 1.45; that for `COc1ccc(C2C(C#N)=C(N)OC3=C2C(=O)CC(c2cccc4ccccc24)C3)cc1` (stereo not drawn) [UCPH-101], 0.
Regarding `N[C@@H](CC(=O)Nc1ccc(Oc2cc(F)c(F)cc2Br)cc1)C(=O)O` [WAY-213613], the S_other stood at 0.44.
The same measure, in the same setting: next, `CC(C)[C@H]1CN[C@H](C(=O)O)[C@H]1CC(=O)O` [Dihydrokainate]: 0; `NC(C(=O)O)C(OCc1ccccc1)C(=O)O` (stereo not drawn) [Threo-beta-benzyloxyaspartic acid, Threo-beta-Benzyloxyaspartic acid]: 0.97.
Regarding `CCNC(=O)/C=C/c1cccc(Br)c1` [Cinromide], the S_other is 0.
For `Fc1ccc(C(OCCN2CCN(CCCc3ccccc3)CC2)c2ccc(F)cc2)cc1` [Vanoxerine (GBR12909), Vanoxerine], the S_other is 0.72.

Still in this data set, the particulars now being: selectivity entropy score from database activities.
As for `CNCCCN1c2ccccc2CCc2ccccc21` [Desipramine], the S_other was 0.2.
The same measure, in the same setting: the result for `N#Cc1ccc(Nc2cnccc2SCc2ccccc2C(=O)O)c2ccccc12` [KPH2f] reads 0.21.

The record behind these values is paper PMC11267547, “Advancing drug discovery through assay development: a survey of tool compounds within the human solute carrier superfamily” (Frontiers in Pharmacology, 2024).
